Whole data set: some 33,000 sequences, median “E-score (-0.5 to 0.5)” near -8e-05, cut for the highest 2% near 0.23. This is one part of the list.
What follows are sequences tested against T1, Nrg2 (UniProt P38082) (assay: PBM E-score (8-mer binding enrichment) (E-score (-0.5 to 0.5)); higher = stronger / more preferred TF binding). Details: protein concentration: 100 nM; construct: GST-full length.
T1 sequence: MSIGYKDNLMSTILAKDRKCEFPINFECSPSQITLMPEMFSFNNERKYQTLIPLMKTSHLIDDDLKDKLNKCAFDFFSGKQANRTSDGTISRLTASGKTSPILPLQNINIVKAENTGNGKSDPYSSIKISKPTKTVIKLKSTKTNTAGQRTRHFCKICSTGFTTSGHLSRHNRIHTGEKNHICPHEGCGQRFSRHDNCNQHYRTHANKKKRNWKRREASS
Description: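 Universal 'all 10-mer' protein binding microarrays (Agilent AMADID 015681) probed with GST-tagged S. cerevisiae TFs (full-length or DBD) made by in vitro transcription/translation (PURExpress), about 100-200 nM. Bound TF was detected with fluorescent anti-GST. Each ungapped 8-mer (which stands for itself and its reverse complement) is scored by the PBM enrichment score (E-score), a modified Wilcoxon-Mann-Whitney statistic from -0.5 to +0.5, computed with the Universal PBM Analysis Suite. Scale: above 0.35 generally sequence-specific binding.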

Sequence	PBM E-score
CGAGCCTA	-0.09
AATGGGCG	-0.179
AAGAGTTA	-0.134
CCTTTAGC	-0.148
CATACCGC	-0.0117
GCCTCCAC	-0.259
AGCTCGTG	0.0659
CTGCACGA	0.0401
AAACGTTT	-0.0594
ACCGATCC	-0.0699
GAGGAGAC	-0.199
AGTGTTCA	0.172
CTGTGCCC	0.0331
ACCCGTCC	-0.208
GAAACCAA	0.0143
ACGTGCTG	0.0915
AAGCGCGC	0.216
CCGAGTTC	0.108
TCCGGGCA	-0.094
ATAGGGCC	0.139
TCCTAGAA	-0.185
CGATACGC	0.0215
CCTCGATC	-0.144
ACGCACCC	-0.154
CTACGTTC	-0.178

Sequence	PBM E-score
ATCAGAAT	0.153
CTCTGTAC	0.015
GAACGCTC	-0.107
AGCCCGCC	-0.0408
AGCAATCA	0.085
ATATGACC	-0.153
CTTCATGA	0.158
CAGCATGG	-0.0508
GAAGCCCC	-0.115
GAAATACC	0.184
AGGAGAGG	-0.211
AGGCAGGG	0.0837
ATAGGAAT	0.0172
CAGCGAGC	0.0399
ACTAACGA	0.00448
CGTCGTGA	-0.129
CCTTCATA	0.0191
GCCCCGCC	0.0441
AGGGGACT	0.0216
GAGTTAGC	0.185
ACCTTTGG	-0.273
GTGCGCAA	0.0151
CGAACGCG	0.00338
TCCCTCGA	0.0839
CGTTTCGC	-0.0766

Sequence	PBM E-score
GCAACTAA	0.288
GTCGTCTA	-0.0718
AGTAAACA	0.101
AGGCCTCA	-0.264
CAAGAAGC	0.0651
CACCCGGA	-0.00226
CCCCGGAC	-0.161
CAACGGAG	0.0386
CCACTCAG	-0.0321
CTTACAGC	-0.0948
ATCGCCCC	0.0686
CTTACTAC	0.102
CAGGACTG	-0.241
GGAGGGAC	-0.2
CACACCCA	0.00158
ACACTAAC	0.155
ACTAGTGC	0.0972
ATTTTTGG	0.0103
CGATAGAC	-0.0576
GTCTCCAA	-0.00942
CCTCCTAC	-0.188
GTACTAAA	0.121
CCGACGTA	-0.0323
CCGCCGGA	0.0331
GATTGTCC	0.0806

An excerpt of the results above, as a working copy:
Sequence	PBM E-score
AGGCCTCA	-0.264
CAAGAAGC	0.0651
CACCCGGA	-0.00226
CCCCGGAC	-0.161

Going on with the list:

Sequence	PBM E-score
GCTCACGA	-0.129
ATGCTGTC	-0.117
ATGCGTGA	0.0673
AACCAAGC	-0.0517
AACCACGC	-0.025
ACAGTTAC	0.0257
CGGTCGGA	0.00234
ACAATATC	0.158
CTATGGTA	-0.0979
GACCATAA	-0.0185
AGTGCGTC	-0.0821
CGCGTACA	0.0116
TAAAGGAA	-0.133
CGTAGACC	-0.116
AGCGTTCG	-0.03
ATAGGGCG	-0.138
ATAAGCCA	-0.00113
CGCCCACA	0.156
ACAGGTGG	-0.176
ATGCTACA	0.0183
CCTGCACG	-0.00448
AAGGTAGC	-0.0182
CGTAAGAA	0.0261
CTATTGAC	-0.0292
AGAGCTGC	-0.143

Sequence	PBM E-score
GATAATCC	0.0429
AGTATAGC	-0.0407
AAGTCCCT	0.101
GGAGAAGA	-0.12
TCCCCTCA	0.235
CTTTGCTA	-0.0423
CGCCGTAA	0.0886
GCGTTTAC	-0.196
CTGCTCGA	0.073
AAACTCGA	0.101
AGGTCCAG	0.0696
CAGAAGAC	0.0683
CGCGTGCC	-6e-05
ACCATATG	-0.0149
TAGCCCCA	0.155
ACACATGG	-0.0177
CTAAGGAA	0.0506
GTGAGGCA	-0.108
CCCCCTCC	-0.328
ATGTGCCC	-0.0305
GAGAACGC	-0.0893
CCTGAGTC	0.0789
ATCACCGG	-0.0938
ATTCCGTA	-0.0204
ATTTGGTG	0.0939

3 records picked at random from the list so far:
Sequence	PBM E-score
GCGTTTAC	-0.196
GCAACTAA	0.288
CGAGCCTA	-0.09

(further entries)

Sequence	PBM E-score
ACCATGTA	0.0787
CCGCATAG	0.0322
GCTTAAAC	-0.129
CTCGCCAA	0.104
AGGAGCAG	-0.233
CATTACTC	-0.0142
AAACCATT	-0.0576
GTAATGAA	0.0518
TCGAATAA	0.0617
CGCCCAAG	-0.146
CTCGGTCC	-0.0232
CCAGACAC	-0.16
CTAAACTA	0.0285
CATCGCCC	-0.127
CGTGATAG	-0.0644
CATTACCC	-0.115
CGGTTACA	0.0955
ACCGAGAT	0.114
TGATTAAA	0.107
ACAGGCTA	-0.14
ATTTTAAG	0.0304
CATTTTCG	0.152
AGGTAACG	-0.0195
AAGGGCGT	-0.153
CACTCTCG	0.135

Sequence	PBM E-score
GGATAGAA	0.146
CCTGCGAG	0.0411
GCTAGACA	-0.0933
GCCCTGCA	0.044
CGGCTGTA	-0.165
AAGATACC	0.206
AACCGAAG	0.0159
AGACGTAA	0.021
CTCCTGAA	0.0373
GGCATGGA	-0.0345
ATCCATTG	0.128
CTGAATGC	-0.139
AGCGCCAG	-0.112
CCTGTCAA	0.0178
ACTCAGGC	0.00622
GTTATGTA	-0.0457
AGCACCCT	-0.0284
ACAGGGCG	0.223
CACACTCC	-0.11
TCCAGGGA	0.242
AAGGGCGA	-0.0222
AGGAGCTG	-0.231

Source: the supplement of paper PMC3334620
